These are yes or no findings as the source states them, for the method shown. In cells and extracts the contact can be indirect. These calls come from enrichment with a bait or labelling near it, and not all partners need be listed. For some assays here: Where a sequence is shown, tags or fusion partners need not be part of it.
Tests used:
[1] = target: T1, VelB-GFP (A. nidulans Velvet-like B, full length, fused to GFP) (A. nidulans), C8VTS4; test: affinity purification with mass spectrometry; conditions: remark: other sources report otherwise
T1 chain: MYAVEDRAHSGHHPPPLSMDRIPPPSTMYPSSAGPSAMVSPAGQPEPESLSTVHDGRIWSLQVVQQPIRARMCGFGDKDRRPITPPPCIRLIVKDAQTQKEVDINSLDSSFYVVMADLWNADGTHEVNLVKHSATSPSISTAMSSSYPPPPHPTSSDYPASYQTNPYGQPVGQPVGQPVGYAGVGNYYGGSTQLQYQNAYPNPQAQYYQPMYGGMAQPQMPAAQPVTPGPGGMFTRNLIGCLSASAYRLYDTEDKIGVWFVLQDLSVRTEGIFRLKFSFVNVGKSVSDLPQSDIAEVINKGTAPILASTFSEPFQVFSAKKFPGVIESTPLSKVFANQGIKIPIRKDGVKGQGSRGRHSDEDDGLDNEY

[2] = target: VelB-GFP (A. nidulans Velvet-like B, full length, fused to GFP) (A. nidulans) (UniProt C8VTS4); test: affinity purification with mass spectrometry; GFP pull-down (GFP-Trap_A beads) of VelB-GFP or VelB^ΔIDD-GFP from vegetative A. nidulans mycelium (24 h, 37°C), intact veA; LC-MS/MS, LFQ; three biological replicates
[3] = target: VelB^ΔIDD-GFP (A. nidulans VelB lacking the intrinsically disordered domain, fused to GFP) (A. nidulans) (UniProt C8VTS4); test: as above

B1: LaeA (loss of the aflatoxin regulator expression A), endogenous, A. nidulans, C8VQG9 1-374 (protein)
chain: MFEMGPVGTRLPAMTSPAHNHYSYHSPTSSDRGRSRQNSDAMDIQSITEREPATRYAVAGGPAPWNRNGSPSMSPMYSNNSERNQFHEENGRTYHGFRRGMYFLPCDEQEQDRLDIFHKLFTVARVSESLIYAPHPTNGRFLDLGCGTGIWAIEVANKYPDAFVAGVDLAPIQPPNHPKNCEFYAPFDFEAPWAMGEDSWDLIHLQMGCGSVMGWPNLYRRIFAHLRPGAWFEQVEIDFEPRCDDRSLDGTALRHWYDCLKQATAETMRPIAHSSRDTIKDLQDAGFTEIDHQIVGLPLNPWHQDEHERKVARWYNLAVSESIENLSLAPFSRVYRWPLERIQQLAADVKSEAFNKEIHAYNILHIYQARKPLR
**Q.** With B1 as the binder, how does the binding [1] read?
**A.** The binding was “binds”.

B2: VeA (Velvet A), endogenous, A. nidulans (protein, UniProt C8VTV4 1-573)
chain: MATLAAPPPPLGESGNSNSVSRITREGKKITYKLNIMQQPKRARACGQGSKSHTDRRPVDPPPVIELNIFESDPHDDSNKTDITFVYNANFFLFATLEPERPIATGKLMTNQGSPVLTGVPVAGVAYLDKPNRAGYFIFPDLSVRNEGSYRFSFHLFEQIKDPKDATEGTQPMPSPVPGKLSSPQEFLEFRLEVISNPFIVYSAKKFPGLTTSTPISRMIAEQGCRVRIRRDVRMRRRGDKRTEDYDYDNERGYNNRRPDQYAGSDAYANAPERPRSTSISTNMDPYSYPSRRPSAVEYGQPIAQPYQRPMASTPAPSSTPIPAPIPMPGPVALPPSTPSPASAHAPAPPSVPLAAPPPLHTPSYQSHLSFGATQTQYPAPQLSHIPQQTTTPTHPYSPRSSISHSRNQSISEYEPSMGYPGSQTRLSAERPSYGQPSQTTSLPPLRHSLEPSVNSRSKTPSNMITSLPPIQSLSELPSTTSQPSSAIGSSPANEPGPRLWETNSMLSKRTYEESFGHDDRPLYNGMRPDSESYPGGMQRRPSYERSSLLDGPDQMAYKRANGRMVSKPATMR
**Q.** What does the source list for B2?
**A.** binding [2]: binds; binding [3]: binds

B3: catalase CatB, endogenous, A. nidulans (enzyme, UniProt P78619 16-722)
chain: VCPYMTGELGRRDTNPDATEATEEFLSEYYLDDTDSYLTTDVGGPIEDQQSLKAGARGSTLLEDFIFRQKIQRFDHERVPERAVHARGAGAHGVFTSYGDFSNITAASFLSAEGKETPVFVRFSTVAGSRGSSDLARDVHGFATRFYTDEGNFDIVGNNIPVFFIQDAIQFPDLIHAVKPKGDREIPQAATAHDAAWDFFSQQPSTLHTLLWAMAGHGIPRSFRHVDGFGVHTFRLVTEDGSTKLVKFHWKTLQGLASMVWEEAQQISGKNPDYMRQDLFESIEAGRYPEWELNVQIMDEEDQLRFGFDLFDPTKIVPEEYVPLTPLGKMTLNRNPRNYFAETEQVMFQPGHVVRGVDFTEDPLLQQGRLFSYLDTQLNRNGGPNFEQLPINQPRVAIHNNNRDGAGQMFIPLNPDAYSPNTLKGSTLKQANQTAGRGFFTAPDRTANGNLVRAKSSTFDDAWSQPRLFWNSLLPAEKQFVVNAIRFENANVKSDVVKNNVIVQLNRISNDLATRVAKAIGVDAPEPDNTYYHDNTTSNIGAFGHRLQSLAGLKIAVLASVDAEESFSAATALKAELSNDNLDVIVVAERFSNGVNQTYSASDAIQFDAVVVAPGAEKLFGAKSAANSSSTLYPAGRPLEILVDAFRFGKPVAALGSGSTAFDNAGINTAVEGVYVADAVDESFANNLEEGLTVFKFLDRFALDSDE
**Q.** For B3, which binding [2] is on record?
**A.** Its binding is “binds”.

**Q.** What about the binding [3] of the same binder?
**A.** The binding was “binds”.

From publication PMC12614781, “The VelB IDD promotes selective heterodimer formation of velvet proteins for fungal development” (Life Science Alliance, 2025)
